# Assay results published in the supplement of paper PMC10338343.
# ± gives the standard deviation. This is a selection; strong and weak results do not stand in their true shares. Many of these values have a large error. The list shows a part of the results.
# Assays:
# [1] = test system: MILI (PIWIL2) piRISC loaded with L1MC piRNA (26 nt); assay: pre-steady-state target cleavage rate (min^-1); higher = faster piRNA-guided slicing of the target; details: guide: L1MC piRNA 5'p-UAACUAAAUACUAUGCAAGCUGUAGG
# Outline: (§1)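 At 33 °C in HEPES–potassium acetate buffer, a transcribed, DNA-blocked target RNA library […] was exposed for 0–8 or 0–960 min to 1 nM active affinity-purified piRISC carrying a single synthetic guide, with or without 500 nM GTSF1 partner protein. Uncleaved targets were sequenced and normalised to depth and to weakly complementary targets. With three trials pooled and k3 capped at 0.0001 min^-1, a burst-and-steady-state fit produced the pre-steady-state cleavage rate.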
# [2] = test system: MIWI (PIWIL1) piRISC loaded with L1MC piRNA (30 nt); assay: as above; details: guide: L1MC piRNA 5'p-UAACUAAAUACUAUGCAAGCUGUAGGUCCU
# Outline: as §1
# [3] = test system: EfPiwi piRISC loaded with L1MC piRNA (26 nt); assay: pre-steady-state target cleavage rate (min^-1); guide: L1MC piRNA 5'p-UAACUAAAUACUAUGCAAGCUGUAGG; MIWI and MILI are mouse PIWI proteins and EfPiwi is from a freshwater sponge; tags in brackets are library labels; higher = faster piRNA-guided slicing of the target
# Outline: as §1
# [4] = auxiliary factor: 500 nM mouse GTSF1
# [5] = auxiliary factor: none (no GTSF1)
# [6] = auxiliary factor: 500 nM Ephydatia muelleri Gtsf1
# [7] = auxiliary factor: none (no Gtsf1)
Sequence,"pre-steady-state target cleavage rate [1, 4]","pre-steady-state target cleavage rate [1, 5]","pre-steady-state target cleavage rate [2, 4]","pre-steady-state target cleavage rate [2, 5]","pre-steady-state target cleavage rate [3, 6]","pre-steady-state target cleavage rate [3, 7]"
UCCUGGAUGUGCAACCAUAGUAUUUAGUAA,0.00554 ± 0.0027,0.000694 ± 0.0081,0.0021 ± 0.0046,0.000916 ± 0.0083,0.000246 ± 0.016,
UCCUGGAUGUCGUUGCAUAGCUAUUUAGUUA,0.00105 ± 0.0094,0.000215 ± 0.026,0.00163 ± 0.006,0.000767 ± 0.013,0.000324 ± 0.0095,
UCCUGGAUGUCGAUGCAAAGUAUUUUGUUA,0.00139 ± 0.0088,0.000415 ± 0.013,0.000629 ± 0.016,0.000115 ± 0.025,< 0.0001,
UCCUGGAUGUGCUUGCAUACGUAUUUAGUUA,0.00141 ± 0.0086,0.00177 ± 0.0051,0.000957 ± 0.012,0.000969 ± 0.0094,0.000784 ± 0.0055,
UCCUGGAUGAGCUUCCAUAGUUUUUAGUUA,0.00464 ± 0.005,0.000705 ± 0.0088,0.00391 ± 0.0066,0.000895 ± 0.0089,0.00024 ± 0.033,
UCCUGGAUGAGCUUGCAUAGUUAAUAGUAA,0.00132 ± 0.0072,0.00115 ± 0.0063,0.00195 ± 0.0053,0.0014 ± 0.0053,0.000306 ± 0.018,
UCCUGGAUGUCGAACCAUAUUAUUUAGUUA,0.000481 ± 0.015,0.000258 ± 0.015,0.000559 ± 0.014,0.000437 ± 0.011,0.000466 ± 0.01,
UCCUGGAUGUCGAAGCAUAGUUUUAGUUA,0.000213 ± 0.035,0.000403 ± 0.0088,0.00024 ± 0.043,0.00108 ± 0.0043,0.00044 ± 0.0092,
UCCUGGAUCCAGCUUGCAUAGUAUUUAGUUA,0.3 ± 0.017,0.00437 ± 0.003,1.31 ± 0.081,0.0546 ± 0.016,0.126 ± 0.022,
UCCUGGAUGAGCUUGCAUAUGUAUUUAGUUA,0.00243 ± 0.005,0.0008 ± 0.01,0.00135 ± 0.0068,0.000687 ± 0.014,0.00171 ± 0.0034,
UCCUGGAUCAGCUUGCAUUAGUAUUUAGUUA,0.00236 ± 0.0054,0.00151 ± 0.0043,0.00214 ± 0.006,0.00204 ± 0.0042,0.000328 ± 0.017,
UCCUGGAUGUCGUUCCAUAGUAUUAAGUUA,0.00181 ± 0.0072,0.00023 ± 0.021,0.0049 ± 0.0055,0.000163 ± 0.018,0.000186 ± 0.02,
UCCUGGAUGAGCUUGCAUAGUAAUUACAAA,0.00275 ± 0.0058,0.000684 ± 0.0097,0.00149 ± 0.0088,0.00125 ± 0.0056,0.00446 ± 0.0034,
UCCUGGAUGUGCUUGCAGUAGUAUUUAGUUA,0.00165 ± 0.0073,0.000718 ± 0.011,0.00172 ± 0.0072,0.000749 ± 0.012,0.000395 ± 0.011,
UCCUGGUACAGCUUGCAUGGUAUUUAGUUA,0.298 ± 0.021,0.0136 ± 0.0044,0.891 ± 0.058,0.0741 ± 0.018,0.00828 ± 0.0033,
UCCUGGAUGUCGUUGCAUAGUAUAUUGUUA,0.0458 ± 0.017,0.00227 ± 0.0041,0.000315 ± 0.031,0.00107 ± 0.0064,0.000227 ± 0.022,
UCCUGGAUGAGGUUGCAUAGUAUUUACUUA,0.000756 ± 0.011,0.000712 ± 0.0098,0.000753 ± 0.013,0.000695 ± 0.0082,0.000314 ± 0.014,
UCCUGGAUGAGCUUCGUUAGUAUUUAGUUA,0.00309 ± 0.0037,0.000836 ± 0.0069,0.000565 ± 0.011,0.000498 ± 0.01,0.000236 ± 0.012,
UCCUGGUACAGCAUGCAUAGUAUUUAGUAA,0.163 ± 0.02,0.00467 ± 0.0031,0.377 ± 0.04,0.00875 ± 0.0024,0.00753 ± 0.0032,

Sequence,"pre-steady-state target cleavage rate [1, 4]","pre-steady-state target cleavage rate [1, 5]","pre-steady-state target cleavage rate [2, 4]","pre-steady-state target cleavage rate [2, 5]","pre-steady-state target cleavage rate [3, 6]","pre-steady-state target cleavage rate [3, 7]"
UCCUGGAUGUGCUUGCAUAGUAUUUUGAAA,0.00858 ± 0.0064,0.000895 ± 0.0066,0.0177 ± 0.0092,0.00406 ± 0.0024,0.00065 ± 0.0094,
UCCUGGAUGUCGUUGCAUACAUUUUAGUUA,0.00108 ± 0.0091,0.000733 ± 0.0095,0.000615 ± 0.015,0.000116 ± 0.028,0.000186 ± 0.017,
UCCUGGAUGUCGUUGCAUAGAAUUUAGAUA,0.000306 ± 0.025,0.00022 ± 0.024,0.000105 ± 0.076,0.000284 ± 0.026,0.000734 ± 0.0093,
UCCUGGAUCAGCUUGGAUUGUAUUUAGUUA,0.00167 ± 0.0061,0.000957 ± 0.0061,0.00177 ± 0.0055,0.000807 ± 0.011,0.000301 ± 0.02,
UCCUGGAUGUCCUUGCAUAGUUUUAGUUA,0.00136 ± 0.0095,0.000814 ± 0.0055,0.00196 ± 0.0071,0.00218 ± 0.0026,0.000266 ± 0.012,
UCCUGGAUCAGCUUGCAUACGUAUUUAGUUA,0.00192 ± 0.0063,0.000907 ± 0.0077,0.00166 ± 0.0069,0.00028 ± 0.016,0.00296 ± 0.0039,
UCCUCCUCCAGCUUGCAUAGUAUUUAGUUA,0.265 ± 0.019,0.00605 ± 0.0026,1.12 ± 0.027,0.0546 ± 0.0092,0.194 ± 0.056,
UCCUGGAACAGCUUGCAUAAUAUUUAGUUA,0.298 ± 0.028,0.00254 ± 0.0032,0.559 ± 0.045,0.0418 ± 0.0079,,0.00189 ± 0.0072
UCCUGGAUGUGGUUGCAUAGUAAUUAGUUA,0.162 ± 0.034,0.00751 ± 0.0032,0.00355 ± 0.0054,0.00277 ± 0.0039,,0.0043 ± 0.0054
UCCUGGAUGUCGAAGCUAAGUAUUUAGUUA,0.000696 ± 0.011,0.000314 ± 0.012,0.000381 ± 0.021,0.00059 ± 0.0078,0.000596 ± 0.009,
UCCUGGAUCAGCUUGCUAUGUAUUUAGAAA,0.00524 ± 0.0033,0.00134 ± 0.0044,0.00203 ± 0.0047,0.0013 ± 0.0025,0.000231 ± 0.013,
UCCUGGAUGUGCUUGCAUACAUUUUAGUUA,0.00178 ± 0.0073,0.00207 ± 0.0038,0.000747 ± 0.015,0.000876 ± 0.0098,,0.000233 ± 0.034
UCCUGGAUGUCCUUGCGAUAGUAUUUAGUUA,0.00182 ± 0.0062,0.00131 ± 0.0054,0.00103 ± 0.0085,0.00113 ± 0.006,0.00153 ± 0.0035,
UCCUGCCACAGCUUGCAUAGUAUUUAGUUA,0.331 ± 0.025,0.0105 ± 0.003,1.2 ± 0.051,0.0769 ± 0.013,0.0631 ± 0.017,
UCCUGGAUGUGCUUGCAAUCUAUUUAGUUA,0.00256 ± 0.0038,0.00135 ± 0.0039,0.00144 ± 0.0056,0.000282 ± 0.0094,0.000648 ± 0.01,
UCCUGGAUGUGGUUGCAUAGAAUUUAGUUA,0.0151 ± 0.0063,0.00318 ± 0.0028,0.00363 ± 0.0068,0.00186 ± 0.0046,0.000743 ± 0.007,
UCCUGGAUGUCGAAGCAUAGUAUUUAGUCUA,,0.0007 ± 0.0081,,0.000481 ± 0.011,0.000299 ± 0.012,
UCCUCCUACAGCUACGAUAGUAUUUACAAA,,0.000135 ± 0.02,,0.000499 ± 0.013,0.000304 ± 0.0091,

# A different layout for part of the listing above:
Sequence | pre-steady-state target cleavage rate [1, 4] | pre-steady-state target cleavage rate [1, 5] | pre-steady-state target cleavage rate [2, 4] | pre-steady-state target cleavage rate [2, 5] | pre-steady-state target cleavage rate [3, 6] | pre-steady-state target cleavage rate [3, 7]
UCCUCCUCCAGCUUGCAUAGUAUUUAGUUA | 0.265 ± 0.019 | 0.00605 ± 0.0026 | 1.12 ± 0.027 | 0.0546 ± 0.0092 | 0.194 ± 0.056 | 
UCCUGGAACAGCUUGCAUAAUAUUUAGUUA | 0.298 ± 0.028 | 0.00254 ± 0.0032 | 0.559 ± 0.045 | 0.0418 ± 0.0079 |  | 0.00189 ± 0.0072
